Data set [1] deals with Stat1 homodimer (SIF C) (Homo sapiens) (UniProt P42224). As to the kind of experiment: EMSA. The note with it: protein in an extract, label: 32P.
Data set [2] concerns Stat1:Stat3 heterodimer (SIF B) (Homo sapiens). Nature of the data set: EMSA. The note with it: protein in an extract, label: 32P.
The target of data set [3] is Stat1alpha S727A (Stat1alpha-s) (Homo sapiens) (UniProt P42224). Nature of the data set: EMSA. The following applies: equal to wild type, protein in an extract, label: 32P. On the technique in general: In EMSA bound probe runs differently from free probe, usually more slowly.
Data set [4] addresses Stat1alpha expressed in U3A cells (Homo sapiens) (UniProt P42224). As to the kind of experiment: EMSA. The note with it: protein in an extract, label: 32P.
The target in data set [5] is Stat3 homodimer (SIF A) (Homo sapiens) (UniProt P40763). Nature of the data set: EMSA. The note with it: protein in an extract, label: 32P.
Data set [6] concerns the target Stat3 EE>AA E434A,E435A (UniProt P42227). Nature of the data set: EMSA. The following applies: nearly undetectable; phosphorylated and dimerizes normally; protein in an extract; label: 32P; variant of SIE (c-fos sis-inducible element).
For data set [7], the target named is Stat3 VVV>AAA V461A,V462A,V463A (UniProt P42227). Nature of the data set: EMSA. The following applies: distinctly reduced but detectable; protein in an extract; label: 32P; variant of SIE (c-fos sis-inducible element).
The target of data set [8] is Stat3 expressed in U3A or COS-1 cells (UniProt P42227). Nature of the data set: EMSA. The following applies: IFN-alpha treated U3A, protein in an extract, label: 32P.
The target of data set [9] is chimera 1,3(297-406),1 (3' Stat1 junction residue not in text) (UniProt P42224). As to the kind of experiment: EMSA. The following applies: Stat1 recognition intact, protein in an extract, protein details: FLAG, label: 32P.
Data set [10] addresses chimera 1,3(406-514),1 (5' Stat1 junction residue not in text) (UniProt P42224). Nature of the data set: EMSA. The note with it: Stat3 recognition transferred, protein in an extract, protein details: FLAG, label: 32P.
Data set [11] deals with chimera 3-111-1 (Stat3 1-111 substituted into Stat1 + exact Stat1 junction residue not in text) (UniProt P42224). Nature of the data set: EMSA. The note with it: interferon treated U3A, protein in an extract, protein details: FLAG, label: 32P.
Data set [12] addresses Stat3 homodimer (SIF A) (Homo sapiens) (UniProt P40763). Nature of the data set: competition with a labelled probe. The note with it: HepG2 IL-6; estimated by competition, S3 better than S1; protein in an extract; label: 32P.
Where [13] appears, read: not observed unless overexposed.
Setting [14] is: very weak signal with STAT proteins.
Where [15] appears, read: HepG2 IL-6, variant of SIE (c-fos sis-inducible element).
Setting [16] is: variant of SIE (c-fos sis-inducible element).

Chains of the proteins cited; added tags and fusions are not shown. Chains listed by the source or under a name are the forms on record and can include a tag or linker. Residues count along the entry.
UniProt P42224, 2-750: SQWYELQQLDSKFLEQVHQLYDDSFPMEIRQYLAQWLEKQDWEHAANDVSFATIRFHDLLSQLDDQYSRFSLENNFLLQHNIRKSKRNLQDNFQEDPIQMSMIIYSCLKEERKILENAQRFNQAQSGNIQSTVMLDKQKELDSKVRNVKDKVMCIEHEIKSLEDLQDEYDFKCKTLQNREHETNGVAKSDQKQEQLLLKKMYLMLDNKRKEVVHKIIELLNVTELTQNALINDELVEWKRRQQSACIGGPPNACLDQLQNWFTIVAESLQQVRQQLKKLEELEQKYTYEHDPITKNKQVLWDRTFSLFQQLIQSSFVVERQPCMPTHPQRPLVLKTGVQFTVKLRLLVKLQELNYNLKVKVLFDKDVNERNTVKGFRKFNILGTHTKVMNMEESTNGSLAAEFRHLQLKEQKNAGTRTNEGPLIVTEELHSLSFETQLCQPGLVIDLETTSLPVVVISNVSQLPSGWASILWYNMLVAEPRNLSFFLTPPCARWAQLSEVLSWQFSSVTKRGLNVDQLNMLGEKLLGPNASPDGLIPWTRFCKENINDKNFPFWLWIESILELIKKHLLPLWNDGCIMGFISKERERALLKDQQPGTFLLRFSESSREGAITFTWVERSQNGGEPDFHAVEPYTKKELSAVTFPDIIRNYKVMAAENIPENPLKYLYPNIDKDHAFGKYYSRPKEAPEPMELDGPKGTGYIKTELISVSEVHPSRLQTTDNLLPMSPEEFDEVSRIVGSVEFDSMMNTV
UniProt P42224, 2-750 S727A: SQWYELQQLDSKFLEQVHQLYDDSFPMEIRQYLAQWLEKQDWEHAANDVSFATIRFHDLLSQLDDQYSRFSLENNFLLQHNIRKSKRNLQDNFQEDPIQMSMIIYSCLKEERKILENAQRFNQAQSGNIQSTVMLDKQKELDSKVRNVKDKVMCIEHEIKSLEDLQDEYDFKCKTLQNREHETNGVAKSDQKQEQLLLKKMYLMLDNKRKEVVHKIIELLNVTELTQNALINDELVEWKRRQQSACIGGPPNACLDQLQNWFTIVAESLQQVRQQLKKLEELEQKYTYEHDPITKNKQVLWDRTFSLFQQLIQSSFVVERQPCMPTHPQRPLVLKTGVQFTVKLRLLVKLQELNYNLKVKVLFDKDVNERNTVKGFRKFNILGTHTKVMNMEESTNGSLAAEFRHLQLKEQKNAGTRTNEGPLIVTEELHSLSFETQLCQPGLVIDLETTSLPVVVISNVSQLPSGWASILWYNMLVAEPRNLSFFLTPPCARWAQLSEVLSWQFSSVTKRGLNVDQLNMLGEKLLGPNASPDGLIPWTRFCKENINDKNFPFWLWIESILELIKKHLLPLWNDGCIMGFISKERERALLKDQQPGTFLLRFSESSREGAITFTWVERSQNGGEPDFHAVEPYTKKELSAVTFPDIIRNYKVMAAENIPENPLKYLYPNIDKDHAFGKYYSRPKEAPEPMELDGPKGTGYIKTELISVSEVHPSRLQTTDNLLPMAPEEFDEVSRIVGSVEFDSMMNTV
UniProt P40763, 2-770: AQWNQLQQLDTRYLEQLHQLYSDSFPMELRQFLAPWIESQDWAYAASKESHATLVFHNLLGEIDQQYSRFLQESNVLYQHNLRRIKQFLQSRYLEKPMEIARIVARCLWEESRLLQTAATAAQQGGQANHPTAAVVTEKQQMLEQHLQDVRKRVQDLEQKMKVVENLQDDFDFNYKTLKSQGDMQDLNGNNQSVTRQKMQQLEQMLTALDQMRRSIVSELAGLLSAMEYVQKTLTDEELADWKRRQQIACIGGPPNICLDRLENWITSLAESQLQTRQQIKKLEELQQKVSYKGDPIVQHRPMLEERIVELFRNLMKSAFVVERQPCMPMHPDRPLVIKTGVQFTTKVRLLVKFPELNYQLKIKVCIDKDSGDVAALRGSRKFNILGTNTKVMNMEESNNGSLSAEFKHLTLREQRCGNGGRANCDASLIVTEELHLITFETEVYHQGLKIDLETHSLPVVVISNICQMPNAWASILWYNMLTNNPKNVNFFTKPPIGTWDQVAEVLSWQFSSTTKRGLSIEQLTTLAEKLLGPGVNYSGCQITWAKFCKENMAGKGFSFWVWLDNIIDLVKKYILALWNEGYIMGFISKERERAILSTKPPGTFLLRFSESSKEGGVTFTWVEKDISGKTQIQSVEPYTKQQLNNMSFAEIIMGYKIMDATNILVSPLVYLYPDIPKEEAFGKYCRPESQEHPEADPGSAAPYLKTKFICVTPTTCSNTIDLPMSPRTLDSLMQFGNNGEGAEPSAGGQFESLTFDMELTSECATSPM
UniProt P42227, other isoform, or with tags, fused parts or gaps E434A E435A: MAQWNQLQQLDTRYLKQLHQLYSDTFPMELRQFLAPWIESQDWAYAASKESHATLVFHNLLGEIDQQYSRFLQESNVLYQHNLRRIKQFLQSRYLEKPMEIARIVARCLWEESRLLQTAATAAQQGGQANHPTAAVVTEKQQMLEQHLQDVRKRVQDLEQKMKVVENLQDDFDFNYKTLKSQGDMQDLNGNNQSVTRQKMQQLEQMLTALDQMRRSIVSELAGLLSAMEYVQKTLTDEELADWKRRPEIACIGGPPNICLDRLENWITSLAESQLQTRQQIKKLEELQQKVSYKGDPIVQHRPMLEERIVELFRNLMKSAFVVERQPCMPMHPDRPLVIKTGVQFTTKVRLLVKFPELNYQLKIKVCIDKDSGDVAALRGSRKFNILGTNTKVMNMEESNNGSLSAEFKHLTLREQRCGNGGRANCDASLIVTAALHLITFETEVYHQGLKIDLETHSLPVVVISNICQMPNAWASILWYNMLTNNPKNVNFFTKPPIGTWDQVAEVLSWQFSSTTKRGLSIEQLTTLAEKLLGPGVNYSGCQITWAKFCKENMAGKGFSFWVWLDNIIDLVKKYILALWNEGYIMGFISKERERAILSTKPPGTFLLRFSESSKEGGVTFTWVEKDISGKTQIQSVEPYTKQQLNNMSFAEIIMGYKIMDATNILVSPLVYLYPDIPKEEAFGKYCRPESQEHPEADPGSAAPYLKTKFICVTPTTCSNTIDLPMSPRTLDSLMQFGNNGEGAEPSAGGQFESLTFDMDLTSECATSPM
UniProt P42227, other isoform, or with tags, fused parts or gaps V461A V462A V463A: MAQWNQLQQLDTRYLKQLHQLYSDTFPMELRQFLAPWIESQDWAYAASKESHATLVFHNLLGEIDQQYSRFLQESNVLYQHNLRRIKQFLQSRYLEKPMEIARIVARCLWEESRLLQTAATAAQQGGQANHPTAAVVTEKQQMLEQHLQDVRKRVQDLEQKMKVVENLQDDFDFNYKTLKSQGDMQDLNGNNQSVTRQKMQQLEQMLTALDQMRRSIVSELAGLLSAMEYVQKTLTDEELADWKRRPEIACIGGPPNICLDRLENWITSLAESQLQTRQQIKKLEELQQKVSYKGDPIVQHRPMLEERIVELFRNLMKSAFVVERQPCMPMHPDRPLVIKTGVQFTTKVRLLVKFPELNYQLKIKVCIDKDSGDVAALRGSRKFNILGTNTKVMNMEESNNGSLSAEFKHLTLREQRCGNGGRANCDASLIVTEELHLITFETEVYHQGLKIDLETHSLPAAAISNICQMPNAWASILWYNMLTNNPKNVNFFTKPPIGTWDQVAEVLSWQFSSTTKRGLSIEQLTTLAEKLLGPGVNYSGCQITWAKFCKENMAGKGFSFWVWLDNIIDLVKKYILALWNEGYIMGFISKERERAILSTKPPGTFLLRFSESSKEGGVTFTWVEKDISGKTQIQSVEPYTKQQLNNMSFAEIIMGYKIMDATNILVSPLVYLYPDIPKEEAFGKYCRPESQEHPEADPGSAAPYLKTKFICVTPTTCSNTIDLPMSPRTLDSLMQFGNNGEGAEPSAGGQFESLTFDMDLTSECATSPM
UniProt P42227, other isoform, or with tags, fused parts or gaps: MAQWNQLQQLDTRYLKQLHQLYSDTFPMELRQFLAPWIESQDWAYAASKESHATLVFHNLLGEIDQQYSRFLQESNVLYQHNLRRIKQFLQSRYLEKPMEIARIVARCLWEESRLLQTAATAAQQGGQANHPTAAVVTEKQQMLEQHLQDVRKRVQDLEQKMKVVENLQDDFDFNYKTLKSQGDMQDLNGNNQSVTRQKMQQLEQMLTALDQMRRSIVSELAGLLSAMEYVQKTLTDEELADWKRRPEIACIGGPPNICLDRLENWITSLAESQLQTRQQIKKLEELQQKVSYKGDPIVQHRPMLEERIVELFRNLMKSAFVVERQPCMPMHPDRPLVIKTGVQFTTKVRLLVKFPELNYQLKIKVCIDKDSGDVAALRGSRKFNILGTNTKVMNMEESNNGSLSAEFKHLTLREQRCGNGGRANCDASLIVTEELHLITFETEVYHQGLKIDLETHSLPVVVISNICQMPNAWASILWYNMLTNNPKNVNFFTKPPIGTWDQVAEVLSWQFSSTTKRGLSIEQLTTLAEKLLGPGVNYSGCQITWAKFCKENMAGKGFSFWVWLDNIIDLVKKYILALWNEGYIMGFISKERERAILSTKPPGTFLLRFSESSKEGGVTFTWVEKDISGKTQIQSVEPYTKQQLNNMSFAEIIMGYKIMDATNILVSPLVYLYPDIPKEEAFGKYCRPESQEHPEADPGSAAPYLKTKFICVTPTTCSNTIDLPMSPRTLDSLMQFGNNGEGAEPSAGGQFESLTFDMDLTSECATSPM
Stat1:Stat3 heterodimer (SIF B) (Homo sapiens), one chain, as listed by the source, chain 2 of 2: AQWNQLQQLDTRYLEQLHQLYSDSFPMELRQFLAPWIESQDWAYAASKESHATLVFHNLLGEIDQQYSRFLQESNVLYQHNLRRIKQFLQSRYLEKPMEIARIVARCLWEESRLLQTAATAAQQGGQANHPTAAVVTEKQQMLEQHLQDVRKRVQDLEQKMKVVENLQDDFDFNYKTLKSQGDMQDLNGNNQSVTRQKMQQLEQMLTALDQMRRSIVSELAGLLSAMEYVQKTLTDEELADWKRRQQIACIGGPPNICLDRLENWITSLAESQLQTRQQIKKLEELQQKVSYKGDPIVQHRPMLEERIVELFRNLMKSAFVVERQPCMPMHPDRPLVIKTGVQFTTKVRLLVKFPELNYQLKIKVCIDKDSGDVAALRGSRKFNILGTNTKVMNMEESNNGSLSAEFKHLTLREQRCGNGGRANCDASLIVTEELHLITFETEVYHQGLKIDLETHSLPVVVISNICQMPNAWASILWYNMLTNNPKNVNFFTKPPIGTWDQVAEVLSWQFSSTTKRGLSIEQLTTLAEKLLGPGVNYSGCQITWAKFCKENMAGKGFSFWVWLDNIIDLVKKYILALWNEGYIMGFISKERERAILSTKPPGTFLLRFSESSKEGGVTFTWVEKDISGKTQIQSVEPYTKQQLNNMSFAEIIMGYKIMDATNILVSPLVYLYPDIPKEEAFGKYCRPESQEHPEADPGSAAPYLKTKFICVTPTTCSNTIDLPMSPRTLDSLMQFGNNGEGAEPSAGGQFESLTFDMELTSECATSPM
Stat1:Stat3 heterodimer (SIF B) (Homo sapiens), one chain, as listed by the source, chain 1 of 2: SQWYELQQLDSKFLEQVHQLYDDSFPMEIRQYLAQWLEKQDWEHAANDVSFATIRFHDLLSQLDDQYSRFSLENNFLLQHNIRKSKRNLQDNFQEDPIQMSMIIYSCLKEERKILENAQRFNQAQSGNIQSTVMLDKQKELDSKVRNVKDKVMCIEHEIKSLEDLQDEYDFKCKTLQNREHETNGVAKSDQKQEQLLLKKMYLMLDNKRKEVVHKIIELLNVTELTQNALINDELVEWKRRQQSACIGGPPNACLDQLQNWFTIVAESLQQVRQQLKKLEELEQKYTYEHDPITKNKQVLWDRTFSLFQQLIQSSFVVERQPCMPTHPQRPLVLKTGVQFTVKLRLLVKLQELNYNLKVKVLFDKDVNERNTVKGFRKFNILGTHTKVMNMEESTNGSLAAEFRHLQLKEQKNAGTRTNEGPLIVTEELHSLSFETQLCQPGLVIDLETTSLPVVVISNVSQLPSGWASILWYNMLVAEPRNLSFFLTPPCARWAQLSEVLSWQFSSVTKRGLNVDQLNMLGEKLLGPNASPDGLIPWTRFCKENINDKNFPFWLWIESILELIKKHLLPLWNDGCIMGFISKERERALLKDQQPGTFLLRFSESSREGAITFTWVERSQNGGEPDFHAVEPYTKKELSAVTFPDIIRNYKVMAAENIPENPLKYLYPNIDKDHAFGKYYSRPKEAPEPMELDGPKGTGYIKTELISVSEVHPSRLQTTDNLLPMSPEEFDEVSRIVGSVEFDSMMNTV

Where cells or extracts were used, other partners may take part. For some assays here: A negative result means that nothing was seen under these conditions. For some assays here: Weaker means in comparison with the reference protein, sequence or condition of that experiment. For some assays here: Construct, isoform or probe ends are uncertain for at least one entry.

Consider “ATATTCCTGTAAGTGAT (double strand) [Ly6E GAS]”, for which the binding result in [1] (2-3 fold less binding than GRR) is “binds”; in data set [2] (bound poorly), “binds more weakly”; in data set [3] (data not shown) it was “binds”; in data set [4] (data not shown) it was “binds”; in [5] (setting [13]), “no binding”.

In the case of “CAGTTCCCGTCAATCAT (double strand) [SIE (c-fos sis-inducible element)]”, the binding result in data set [1] (setting [14]), in data set [2] (setting [14]) and in [5] (setting [14]) was “binds more weakly” each time.

“CATTTCCCGTAAATCAT (double strand) [M67 SIE]”: the binding result in data set [1] (setting [15]) was “binds”; in data set [2] (setting [15]) it was “binds”; in data set [3] (data not shown, variant of SIE (c-fos sis-inducible element)), “binds”; in data set [4] (IFN-gamma treated U3A, variant of SIE (c-fos sis-inducible element)), “binds”; in data set [6], “binds more weakly”; in data set [7], “binds more weakly”. In addition, the binding result is recorded as “binds” in data set [8] (EGF-treated COS, variant of SIE (c-fos sis-inducible element)); “binds” in data set [5] (setting [15]); “binds” in data set [9] (setting [16]); “binds” in data set [10] (setting [16]); “binds” in [11] (setting [16]).

“GTATTTCCCAGAAAAGG (double strand) [GRR (FcgammaR1)]”: the binding result in data set [1] (HepG2 IL-6) is “binds”; in [2] (bound poorly), “binds more weakly”; in [4] (IFN-gamma treated U3A) it was “binds”; in data set [8] (not or very poorly bound), “no binding”; in data set [5] (setting [13]) it was “no binding”; in data set [9], “binds”. Also, the binding result in data set [10] is listed as “no binding”; in data set [11] it was “binds”.

In the case of “GTTGTTCCGGGAAAATT (double strand) [S1 (Stat1 selected consensus)]”, the binding result in data set [1] (HepG2 extract, lower affinity than M67, site selected by Stat1 from random pool) was “binds”; in data set [2] (HepG2 IL-6, lower overall affinity than M67), “binds”; in data set [5] (HepG2 IL-6, lower overall affinity than M67, 3-5 fold weaker than S3 by competition), “binds”.

On to “TATTTCCGGGAAATCCC (double strand) [S3 (Stat3 selected consensus)]”, for which the binding result in data set [1] (HepG2 IL-6), in [2] (partly obscured by comigrating constitutive protein) and in data set [12] was “binds” in each case.

Turning to “TTCCCCGAA (double strand) [IRF-1 GAS (only core printed)]”, the binding result was “binds” in [3] and “binds” in data set [4] (IFN-gamma treated U3A, supershifted by anti-Stat1C).

The record behind these values is US5716622.
